Source: PMC10923651
No constants are given. Whether binding was seen depends on the method and setting. In cells and extracts the contact can be indirect. These calls come from enrichment with a bait or labelling near it, and not all partners need be listed.

Sequences of proteins named here, by UniProt entry; tags and fusion partners are left off.
UniProt S8F418: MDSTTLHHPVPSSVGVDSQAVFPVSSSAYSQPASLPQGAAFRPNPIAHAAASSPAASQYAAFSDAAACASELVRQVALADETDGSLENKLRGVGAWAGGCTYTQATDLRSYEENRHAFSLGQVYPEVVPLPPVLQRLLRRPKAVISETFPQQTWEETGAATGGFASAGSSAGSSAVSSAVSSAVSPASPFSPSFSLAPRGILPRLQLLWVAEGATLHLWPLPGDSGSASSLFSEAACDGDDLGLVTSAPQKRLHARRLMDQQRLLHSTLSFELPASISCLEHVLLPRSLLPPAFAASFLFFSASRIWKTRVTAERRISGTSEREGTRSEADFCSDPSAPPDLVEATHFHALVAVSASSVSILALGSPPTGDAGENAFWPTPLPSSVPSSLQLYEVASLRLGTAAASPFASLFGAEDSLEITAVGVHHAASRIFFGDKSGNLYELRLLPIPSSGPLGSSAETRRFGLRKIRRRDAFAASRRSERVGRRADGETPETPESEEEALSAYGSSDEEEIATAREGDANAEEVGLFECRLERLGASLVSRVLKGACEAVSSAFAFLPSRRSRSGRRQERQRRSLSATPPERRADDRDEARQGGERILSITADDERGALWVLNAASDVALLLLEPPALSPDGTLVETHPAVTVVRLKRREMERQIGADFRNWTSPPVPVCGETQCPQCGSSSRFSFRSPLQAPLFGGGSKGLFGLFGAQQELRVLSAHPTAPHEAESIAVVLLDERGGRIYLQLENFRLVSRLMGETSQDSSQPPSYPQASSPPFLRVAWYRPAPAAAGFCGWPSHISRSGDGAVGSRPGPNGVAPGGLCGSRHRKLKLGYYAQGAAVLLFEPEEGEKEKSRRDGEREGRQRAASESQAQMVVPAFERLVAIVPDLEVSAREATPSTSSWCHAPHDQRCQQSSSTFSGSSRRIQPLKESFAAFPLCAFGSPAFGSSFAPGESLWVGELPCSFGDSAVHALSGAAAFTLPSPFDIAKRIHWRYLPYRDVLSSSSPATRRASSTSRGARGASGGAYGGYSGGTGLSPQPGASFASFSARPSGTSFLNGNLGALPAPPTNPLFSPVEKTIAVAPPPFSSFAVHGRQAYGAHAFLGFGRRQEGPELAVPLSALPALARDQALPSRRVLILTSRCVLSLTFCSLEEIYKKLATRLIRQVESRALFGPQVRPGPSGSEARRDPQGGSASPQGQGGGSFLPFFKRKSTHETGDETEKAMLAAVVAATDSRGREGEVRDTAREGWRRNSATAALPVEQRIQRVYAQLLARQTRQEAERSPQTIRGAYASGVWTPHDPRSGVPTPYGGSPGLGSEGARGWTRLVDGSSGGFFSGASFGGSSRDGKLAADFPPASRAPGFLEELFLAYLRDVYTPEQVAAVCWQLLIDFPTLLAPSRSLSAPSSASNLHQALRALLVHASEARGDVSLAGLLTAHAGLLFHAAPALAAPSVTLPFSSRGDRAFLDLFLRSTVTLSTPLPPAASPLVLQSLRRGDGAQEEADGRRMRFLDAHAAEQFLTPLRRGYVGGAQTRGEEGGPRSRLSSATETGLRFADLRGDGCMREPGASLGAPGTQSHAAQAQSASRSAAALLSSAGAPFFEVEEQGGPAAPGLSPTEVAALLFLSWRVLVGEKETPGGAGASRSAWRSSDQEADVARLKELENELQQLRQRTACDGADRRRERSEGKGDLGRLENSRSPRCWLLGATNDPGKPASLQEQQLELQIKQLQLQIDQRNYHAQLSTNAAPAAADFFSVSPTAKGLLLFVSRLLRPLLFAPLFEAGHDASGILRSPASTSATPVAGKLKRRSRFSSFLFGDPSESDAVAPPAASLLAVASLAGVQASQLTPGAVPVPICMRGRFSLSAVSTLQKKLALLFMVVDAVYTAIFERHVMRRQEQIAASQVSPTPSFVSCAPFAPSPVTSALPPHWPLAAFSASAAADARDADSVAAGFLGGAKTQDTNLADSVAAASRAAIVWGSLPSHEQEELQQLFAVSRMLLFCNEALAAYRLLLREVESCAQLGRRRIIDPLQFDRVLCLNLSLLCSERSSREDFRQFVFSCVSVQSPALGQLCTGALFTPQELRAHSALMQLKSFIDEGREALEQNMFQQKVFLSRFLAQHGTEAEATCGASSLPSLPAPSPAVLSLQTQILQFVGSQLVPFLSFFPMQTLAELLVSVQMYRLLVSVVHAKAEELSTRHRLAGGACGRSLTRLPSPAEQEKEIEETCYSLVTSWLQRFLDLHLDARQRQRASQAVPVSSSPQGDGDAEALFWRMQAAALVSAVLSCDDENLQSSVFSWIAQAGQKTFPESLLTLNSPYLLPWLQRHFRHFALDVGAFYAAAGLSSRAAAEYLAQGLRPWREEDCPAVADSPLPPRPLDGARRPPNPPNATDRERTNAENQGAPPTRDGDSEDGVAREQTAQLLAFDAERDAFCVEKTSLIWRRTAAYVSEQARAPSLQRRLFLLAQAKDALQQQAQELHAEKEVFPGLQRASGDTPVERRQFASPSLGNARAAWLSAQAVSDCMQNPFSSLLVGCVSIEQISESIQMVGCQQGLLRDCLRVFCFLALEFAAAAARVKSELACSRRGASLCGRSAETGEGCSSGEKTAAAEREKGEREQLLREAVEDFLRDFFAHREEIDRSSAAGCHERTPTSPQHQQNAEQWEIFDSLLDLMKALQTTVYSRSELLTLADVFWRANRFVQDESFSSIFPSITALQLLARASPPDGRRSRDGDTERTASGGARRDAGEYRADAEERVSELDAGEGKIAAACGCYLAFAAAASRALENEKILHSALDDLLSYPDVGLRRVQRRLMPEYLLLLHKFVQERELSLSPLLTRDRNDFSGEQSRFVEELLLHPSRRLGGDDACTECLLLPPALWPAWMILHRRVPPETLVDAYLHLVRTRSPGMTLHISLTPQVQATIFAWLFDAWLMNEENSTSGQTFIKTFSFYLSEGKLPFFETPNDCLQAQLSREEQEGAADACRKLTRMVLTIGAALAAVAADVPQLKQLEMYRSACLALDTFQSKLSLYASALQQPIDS
UniProt A0A125YI50: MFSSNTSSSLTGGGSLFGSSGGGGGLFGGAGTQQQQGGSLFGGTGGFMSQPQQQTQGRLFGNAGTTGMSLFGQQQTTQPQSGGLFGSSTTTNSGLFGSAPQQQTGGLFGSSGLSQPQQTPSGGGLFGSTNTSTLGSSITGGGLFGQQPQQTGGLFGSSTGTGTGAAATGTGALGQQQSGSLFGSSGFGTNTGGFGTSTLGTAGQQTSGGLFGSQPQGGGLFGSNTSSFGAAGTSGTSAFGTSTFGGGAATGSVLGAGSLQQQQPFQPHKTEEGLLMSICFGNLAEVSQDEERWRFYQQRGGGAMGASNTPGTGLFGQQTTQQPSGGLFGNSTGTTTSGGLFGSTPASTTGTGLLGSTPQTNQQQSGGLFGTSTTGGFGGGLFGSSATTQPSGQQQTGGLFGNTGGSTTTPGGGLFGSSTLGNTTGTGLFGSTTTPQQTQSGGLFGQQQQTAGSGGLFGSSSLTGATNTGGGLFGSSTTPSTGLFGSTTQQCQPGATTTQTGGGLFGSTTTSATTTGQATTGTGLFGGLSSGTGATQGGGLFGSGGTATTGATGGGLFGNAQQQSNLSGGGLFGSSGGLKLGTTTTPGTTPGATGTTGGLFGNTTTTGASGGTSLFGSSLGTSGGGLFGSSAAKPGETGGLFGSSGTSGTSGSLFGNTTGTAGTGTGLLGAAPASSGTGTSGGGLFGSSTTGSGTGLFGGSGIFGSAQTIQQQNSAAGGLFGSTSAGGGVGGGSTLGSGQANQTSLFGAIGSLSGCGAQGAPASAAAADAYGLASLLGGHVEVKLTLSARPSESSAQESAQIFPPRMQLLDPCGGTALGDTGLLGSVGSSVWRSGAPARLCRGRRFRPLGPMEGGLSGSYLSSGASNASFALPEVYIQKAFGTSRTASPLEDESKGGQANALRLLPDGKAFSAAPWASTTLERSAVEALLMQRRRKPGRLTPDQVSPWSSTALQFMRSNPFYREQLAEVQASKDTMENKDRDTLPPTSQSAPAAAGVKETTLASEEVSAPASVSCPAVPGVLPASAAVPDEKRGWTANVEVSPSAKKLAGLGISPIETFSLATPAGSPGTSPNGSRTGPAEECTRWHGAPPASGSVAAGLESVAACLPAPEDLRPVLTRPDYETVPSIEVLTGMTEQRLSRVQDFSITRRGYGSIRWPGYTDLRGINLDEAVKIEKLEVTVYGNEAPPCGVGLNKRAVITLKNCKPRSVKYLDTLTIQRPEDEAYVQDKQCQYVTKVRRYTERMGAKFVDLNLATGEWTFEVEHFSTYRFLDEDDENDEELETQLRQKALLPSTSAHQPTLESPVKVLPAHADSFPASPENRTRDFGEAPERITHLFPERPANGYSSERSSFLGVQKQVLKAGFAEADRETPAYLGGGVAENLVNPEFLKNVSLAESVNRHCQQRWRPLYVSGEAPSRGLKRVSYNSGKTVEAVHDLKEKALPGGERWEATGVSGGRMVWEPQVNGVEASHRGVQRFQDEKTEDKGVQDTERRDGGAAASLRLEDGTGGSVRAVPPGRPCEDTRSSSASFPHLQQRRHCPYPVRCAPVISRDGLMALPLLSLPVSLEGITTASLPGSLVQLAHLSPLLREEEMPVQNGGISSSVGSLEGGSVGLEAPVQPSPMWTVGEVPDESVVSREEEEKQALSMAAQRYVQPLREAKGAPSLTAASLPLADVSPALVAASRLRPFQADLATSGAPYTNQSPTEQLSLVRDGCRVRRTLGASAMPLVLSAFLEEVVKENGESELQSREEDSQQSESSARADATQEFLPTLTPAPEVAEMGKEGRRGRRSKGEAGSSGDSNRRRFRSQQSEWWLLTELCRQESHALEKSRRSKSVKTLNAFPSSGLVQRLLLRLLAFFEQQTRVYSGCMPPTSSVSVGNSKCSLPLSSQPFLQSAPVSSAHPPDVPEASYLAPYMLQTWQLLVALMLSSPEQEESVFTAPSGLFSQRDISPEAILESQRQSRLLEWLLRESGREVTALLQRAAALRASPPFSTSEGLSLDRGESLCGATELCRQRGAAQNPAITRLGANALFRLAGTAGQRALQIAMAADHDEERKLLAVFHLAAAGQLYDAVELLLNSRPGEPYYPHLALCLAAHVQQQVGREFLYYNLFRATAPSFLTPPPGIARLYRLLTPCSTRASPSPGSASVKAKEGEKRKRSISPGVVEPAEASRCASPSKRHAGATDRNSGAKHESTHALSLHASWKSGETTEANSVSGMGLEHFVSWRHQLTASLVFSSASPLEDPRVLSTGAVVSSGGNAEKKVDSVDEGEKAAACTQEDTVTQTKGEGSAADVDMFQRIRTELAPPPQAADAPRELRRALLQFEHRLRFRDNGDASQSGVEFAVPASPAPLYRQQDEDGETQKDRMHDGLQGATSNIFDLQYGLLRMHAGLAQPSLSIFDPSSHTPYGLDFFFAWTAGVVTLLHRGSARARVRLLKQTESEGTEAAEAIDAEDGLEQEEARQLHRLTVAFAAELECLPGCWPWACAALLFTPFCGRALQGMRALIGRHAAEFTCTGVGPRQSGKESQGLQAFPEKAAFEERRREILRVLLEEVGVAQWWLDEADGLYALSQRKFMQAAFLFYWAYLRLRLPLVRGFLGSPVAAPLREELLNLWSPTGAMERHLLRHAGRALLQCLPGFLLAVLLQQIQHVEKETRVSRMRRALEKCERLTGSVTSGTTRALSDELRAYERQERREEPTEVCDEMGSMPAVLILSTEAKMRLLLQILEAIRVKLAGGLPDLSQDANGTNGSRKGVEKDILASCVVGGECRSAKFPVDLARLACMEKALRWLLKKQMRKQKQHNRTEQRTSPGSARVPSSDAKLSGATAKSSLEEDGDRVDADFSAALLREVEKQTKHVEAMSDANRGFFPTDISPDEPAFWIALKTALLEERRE
UniProt A0A125YIH2: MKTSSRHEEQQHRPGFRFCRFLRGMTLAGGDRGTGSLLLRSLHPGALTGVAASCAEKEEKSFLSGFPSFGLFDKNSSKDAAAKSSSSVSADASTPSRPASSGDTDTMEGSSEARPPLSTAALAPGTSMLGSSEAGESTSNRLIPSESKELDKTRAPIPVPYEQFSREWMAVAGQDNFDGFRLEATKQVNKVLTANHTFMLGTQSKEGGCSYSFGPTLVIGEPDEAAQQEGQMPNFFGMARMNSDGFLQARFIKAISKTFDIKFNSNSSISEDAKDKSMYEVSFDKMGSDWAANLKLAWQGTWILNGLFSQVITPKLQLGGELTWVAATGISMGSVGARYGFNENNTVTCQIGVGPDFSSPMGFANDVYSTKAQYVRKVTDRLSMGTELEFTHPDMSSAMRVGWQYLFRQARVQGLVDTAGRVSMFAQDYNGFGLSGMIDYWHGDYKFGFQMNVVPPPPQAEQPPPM

Molecular target: N-terminally HA-tagged TgNup503 (Toxoplasma gondii) (UniProt S8GIN8)
Experiment: affinity purification with mass spectrometry; anti-HA beads; nuclear and insoluble extracts of 5 × 10^8 tachyzoites, 16–24 h at 4°C, washes in TBS with Tween 20; two repeats, three negative controls from a parental line with no HA-tagged protein

| Molecule | binding |
| --- | --- |
| Hypothetical protein TGME49_258970 (from UniProt S8F418 1-3039) | binds |
| TgNup302 (from UniProt A0A125YI50 1-2894) | binds |
| TgTom40 (from UniProt A0A125YIH2 1-466) | binds |
| Hypothetical protein TGME49_287500 (protein, UniProt S8F8T7 1-556) MFANRYGLSGLLKEGHRSFTGIDEVTAKNIDACKALTDLTRTSLGPNSLSKLVVTSLGKRIVTAHTSLIVKELEVQHPAAKMLAMAAEMQQQEFGGAVNLLLVFAGQLLAQAEYLLKQGLHPNDVARGYEMAVAKLPAFLEESVCYTLKSLNDEQALAEVLESTVATKPLCTEGRLHKLVAQAAAMVMPPNNPKDFDVENIRVAKLTGGRLSQSVVLKGMVVTRPPSGSVESKQNCKVMVLGCGLECSTTEAKGTVLVHNAEELKNFTKGEERQMEEIIKGIKDAGVEVIIVHGGAISDVAQHFCNKYDILTLKIQSKFETRRLCRALGATAVVRLGVPTPEELGSCLSITVSEISSKKVTNILTKDSRVCTVVLRGSTPSVLDEAERAIDDAANLVKALTQDPRLVAGAGAAEMEMSRKFAAFGATLPGVEQYAVLKFGEAFEMIPRLLAESSGHSGTEALAALHAAHGQGRVHEGVNTDISVSYPSFKSAAAASAPSLTINAVEKKIYDHHKMKQWALRLGADAALTVLRVDQIIMARPAGGPAPRAPGAPDLD | binds |
